Laboratory results from the supplement of paper PMC11732987, “Enantioselective OTUD7B fragment discovery through chemoproteomics screening and high-throughput optimisation” (Communications Chemistry, 2025).
Some of the results follow. The data scatter; read single values as rough.

The chains behind the UniProt entries cited, without tags or fusion partners. Where a name states a change or a piece, a line headed by the entry shows the natural chain unless it says otherwise.
UniProt Q7Z2K8: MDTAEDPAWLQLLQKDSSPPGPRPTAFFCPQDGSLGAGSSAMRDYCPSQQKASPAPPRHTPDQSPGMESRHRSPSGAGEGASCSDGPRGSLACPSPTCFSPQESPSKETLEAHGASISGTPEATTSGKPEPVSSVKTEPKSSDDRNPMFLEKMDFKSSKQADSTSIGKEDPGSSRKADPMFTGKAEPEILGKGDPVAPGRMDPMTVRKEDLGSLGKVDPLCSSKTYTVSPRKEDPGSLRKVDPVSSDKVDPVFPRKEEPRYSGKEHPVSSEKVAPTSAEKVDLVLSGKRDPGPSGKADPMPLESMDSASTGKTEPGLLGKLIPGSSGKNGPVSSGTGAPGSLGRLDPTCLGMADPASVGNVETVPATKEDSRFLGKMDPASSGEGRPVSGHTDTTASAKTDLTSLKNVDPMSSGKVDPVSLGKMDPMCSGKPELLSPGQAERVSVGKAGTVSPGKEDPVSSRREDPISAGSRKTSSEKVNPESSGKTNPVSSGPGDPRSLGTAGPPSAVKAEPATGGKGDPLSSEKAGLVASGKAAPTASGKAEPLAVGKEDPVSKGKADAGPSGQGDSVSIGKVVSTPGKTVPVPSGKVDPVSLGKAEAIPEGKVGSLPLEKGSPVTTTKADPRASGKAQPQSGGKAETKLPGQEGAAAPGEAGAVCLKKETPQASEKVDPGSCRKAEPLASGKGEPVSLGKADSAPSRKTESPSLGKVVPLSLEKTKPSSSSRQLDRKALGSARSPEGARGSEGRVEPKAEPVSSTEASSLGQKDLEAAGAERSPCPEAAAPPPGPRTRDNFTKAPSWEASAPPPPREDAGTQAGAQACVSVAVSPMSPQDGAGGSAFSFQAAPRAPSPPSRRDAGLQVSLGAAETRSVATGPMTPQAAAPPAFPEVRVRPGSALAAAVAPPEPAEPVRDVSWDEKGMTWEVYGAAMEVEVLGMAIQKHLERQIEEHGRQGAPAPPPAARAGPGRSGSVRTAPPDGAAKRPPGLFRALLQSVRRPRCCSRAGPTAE
UniProt P43304: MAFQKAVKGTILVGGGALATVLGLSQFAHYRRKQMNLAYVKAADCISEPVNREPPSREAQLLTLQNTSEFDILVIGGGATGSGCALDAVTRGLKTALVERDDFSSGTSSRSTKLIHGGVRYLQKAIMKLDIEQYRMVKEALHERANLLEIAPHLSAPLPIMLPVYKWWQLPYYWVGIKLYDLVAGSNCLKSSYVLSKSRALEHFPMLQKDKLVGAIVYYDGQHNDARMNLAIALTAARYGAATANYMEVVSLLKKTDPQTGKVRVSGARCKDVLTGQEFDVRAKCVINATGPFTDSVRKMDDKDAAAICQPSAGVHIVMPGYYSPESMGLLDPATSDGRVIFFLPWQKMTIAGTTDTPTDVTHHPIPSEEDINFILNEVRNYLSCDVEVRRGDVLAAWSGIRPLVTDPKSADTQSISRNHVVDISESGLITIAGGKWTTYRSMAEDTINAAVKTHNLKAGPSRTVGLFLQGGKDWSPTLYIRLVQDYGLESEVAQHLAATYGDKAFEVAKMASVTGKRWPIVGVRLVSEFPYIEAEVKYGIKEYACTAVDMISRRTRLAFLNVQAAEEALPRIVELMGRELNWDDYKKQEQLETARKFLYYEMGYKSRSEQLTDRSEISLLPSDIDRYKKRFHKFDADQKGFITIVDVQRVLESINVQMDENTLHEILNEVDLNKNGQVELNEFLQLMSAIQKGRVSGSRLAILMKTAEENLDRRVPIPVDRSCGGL
UniProt Q08378: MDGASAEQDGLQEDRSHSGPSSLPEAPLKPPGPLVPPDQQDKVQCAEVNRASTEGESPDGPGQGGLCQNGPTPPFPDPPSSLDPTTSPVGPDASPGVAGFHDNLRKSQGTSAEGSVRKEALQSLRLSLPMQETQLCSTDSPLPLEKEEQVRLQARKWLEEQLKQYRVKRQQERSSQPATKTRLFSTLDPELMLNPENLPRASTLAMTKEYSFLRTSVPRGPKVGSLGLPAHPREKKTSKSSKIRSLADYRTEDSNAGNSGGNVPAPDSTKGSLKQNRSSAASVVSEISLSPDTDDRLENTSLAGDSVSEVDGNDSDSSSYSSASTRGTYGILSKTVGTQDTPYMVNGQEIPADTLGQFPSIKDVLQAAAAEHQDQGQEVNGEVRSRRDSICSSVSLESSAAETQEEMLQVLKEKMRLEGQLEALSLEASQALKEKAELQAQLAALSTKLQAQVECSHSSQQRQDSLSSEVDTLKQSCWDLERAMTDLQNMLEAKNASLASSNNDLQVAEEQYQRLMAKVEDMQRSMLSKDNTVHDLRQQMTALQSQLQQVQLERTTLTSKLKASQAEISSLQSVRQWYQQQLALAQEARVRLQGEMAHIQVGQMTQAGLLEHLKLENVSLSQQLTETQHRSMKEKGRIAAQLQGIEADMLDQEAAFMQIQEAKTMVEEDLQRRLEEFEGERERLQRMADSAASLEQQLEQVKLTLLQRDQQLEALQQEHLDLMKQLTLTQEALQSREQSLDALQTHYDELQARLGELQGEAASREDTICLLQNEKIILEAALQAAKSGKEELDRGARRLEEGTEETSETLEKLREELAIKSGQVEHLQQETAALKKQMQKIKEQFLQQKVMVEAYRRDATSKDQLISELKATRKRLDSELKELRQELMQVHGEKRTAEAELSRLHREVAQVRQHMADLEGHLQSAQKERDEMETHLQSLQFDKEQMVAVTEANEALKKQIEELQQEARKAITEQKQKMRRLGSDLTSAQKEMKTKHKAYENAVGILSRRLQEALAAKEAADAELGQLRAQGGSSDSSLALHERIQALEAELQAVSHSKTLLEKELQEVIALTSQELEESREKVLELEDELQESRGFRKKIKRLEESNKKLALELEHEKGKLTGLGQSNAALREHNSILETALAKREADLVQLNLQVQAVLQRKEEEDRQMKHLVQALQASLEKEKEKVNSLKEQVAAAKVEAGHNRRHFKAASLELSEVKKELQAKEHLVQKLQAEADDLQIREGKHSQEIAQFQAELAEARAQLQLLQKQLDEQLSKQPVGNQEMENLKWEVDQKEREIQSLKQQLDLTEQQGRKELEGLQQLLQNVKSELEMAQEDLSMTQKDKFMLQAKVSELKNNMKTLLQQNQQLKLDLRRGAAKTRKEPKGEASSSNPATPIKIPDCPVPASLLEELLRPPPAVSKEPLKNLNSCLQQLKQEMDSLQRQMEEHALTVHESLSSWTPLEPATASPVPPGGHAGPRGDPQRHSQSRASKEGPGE
UniProt O95749: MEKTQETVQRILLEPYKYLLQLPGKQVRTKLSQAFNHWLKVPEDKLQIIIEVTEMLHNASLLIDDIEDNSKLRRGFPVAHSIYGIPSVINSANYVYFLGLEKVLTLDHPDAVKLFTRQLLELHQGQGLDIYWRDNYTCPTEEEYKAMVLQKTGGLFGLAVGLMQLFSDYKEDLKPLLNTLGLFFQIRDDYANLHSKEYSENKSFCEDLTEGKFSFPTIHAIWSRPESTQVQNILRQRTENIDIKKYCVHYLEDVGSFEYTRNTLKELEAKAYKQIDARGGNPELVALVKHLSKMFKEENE
UniProt Q9H3C7, whole entry, looked up: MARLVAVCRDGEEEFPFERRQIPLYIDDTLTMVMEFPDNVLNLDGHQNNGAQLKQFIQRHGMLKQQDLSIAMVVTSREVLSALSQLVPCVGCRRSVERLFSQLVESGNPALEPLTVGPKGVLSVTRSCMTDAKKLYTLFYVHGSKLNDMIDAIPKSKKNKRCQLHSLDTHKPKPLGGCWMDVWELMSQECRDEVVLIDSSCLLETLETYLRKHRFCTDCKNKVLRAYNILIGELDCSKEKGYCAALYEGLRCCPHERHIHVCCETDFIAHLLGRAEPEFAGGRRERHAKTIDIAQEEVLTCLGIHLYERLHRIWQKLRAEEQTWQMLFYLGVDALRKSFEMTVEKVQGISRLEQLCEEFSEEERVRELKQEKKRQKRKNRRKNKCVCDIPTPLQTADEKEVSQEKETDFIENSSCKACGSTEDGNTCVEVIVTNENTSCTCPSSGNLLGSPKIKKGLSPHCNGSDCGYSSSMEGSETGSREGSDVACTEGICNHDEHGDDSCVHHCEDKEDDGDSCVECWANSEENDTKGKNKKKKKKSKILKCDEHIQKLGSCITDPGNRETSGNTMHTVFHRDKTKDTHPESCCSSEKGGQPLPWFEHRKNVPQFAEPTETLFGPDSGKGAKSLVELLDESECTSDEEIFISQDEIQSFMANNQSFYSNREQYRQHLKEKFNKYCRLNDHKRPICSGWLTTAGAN
UniProt P63096, whole entry, looked up: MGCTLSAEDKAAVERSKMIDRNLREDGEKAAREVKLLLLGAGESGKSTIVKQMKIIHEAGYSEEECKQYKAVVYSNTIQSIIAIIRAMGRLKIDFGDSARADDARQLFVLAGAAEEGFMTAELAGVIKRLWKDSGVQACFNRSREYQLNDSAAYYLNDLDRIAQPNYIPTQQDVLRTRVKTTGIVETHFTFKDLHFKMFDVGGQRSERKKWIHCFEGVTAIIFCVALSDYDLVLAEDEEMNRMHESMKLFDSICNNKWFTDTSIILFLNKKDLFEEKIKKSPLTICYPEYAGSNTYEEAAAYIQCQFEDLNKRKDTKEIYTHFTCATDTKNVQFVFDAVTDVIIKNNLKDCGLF
UniProt Q8TD30: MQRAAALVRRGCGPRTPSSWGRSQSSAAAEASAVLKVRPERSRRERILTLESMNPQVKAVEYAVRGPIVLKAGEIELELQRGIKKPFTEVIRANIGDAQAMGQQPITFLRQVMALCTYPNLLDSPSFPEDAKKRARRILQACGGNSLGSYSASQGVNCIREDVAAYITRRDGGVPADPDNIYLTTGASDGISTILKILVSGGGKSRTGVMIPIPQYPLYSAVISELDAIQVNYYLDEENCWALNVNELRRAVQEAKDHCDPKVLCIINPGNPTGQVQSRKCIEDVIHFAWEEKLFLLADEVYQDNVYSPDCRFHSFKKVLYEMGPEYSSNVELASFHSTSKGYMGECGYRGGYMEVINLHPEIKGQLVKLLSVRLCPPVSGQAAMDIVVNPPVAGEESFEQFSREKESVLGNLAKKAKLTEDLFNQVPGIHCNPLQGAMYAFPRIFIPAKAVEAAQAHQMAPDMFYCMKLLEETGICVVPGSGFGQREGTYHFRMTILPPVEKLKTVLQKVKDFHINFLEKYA

Assays:
[1] = compound: ClCC(=O)N[C@@H]1CCCc2ccccc12; test: log2 mean competition ratio of IA-DTB cysteine labelling (DMSO/compound) (log2 ratio); higher = stronger cysteine engagement by compound; conditions: treatment time: 4 h, cell line lysate: HEK293T
Description: (§1)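 IA-DTB competitive cysteine chemoproteomics in HEK293T RIPA lysate. Lysates were treated with compound 29 or 30 at 50 or 200 µM for 4 h, then IA-DTB (500 µM, 1 h), trypsin-digested, NeutrAvidin-enriched and analysed by diaPASEF. Competition ratio = intensity DMSO / intensity compound (n=4 treated, n=64 DMSO); binding: mean log2 CR ≥ 1 and p ≤ 0.05 plus QC filters. Target is the cysteine site.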

[2] = compound: ClCC(=O)N[C@H]1CCCc2ccccc12; test: as above; conditions: treatment time: 4 h, cell line lysate: HEK293T
Description: as §1

Target | log2 mean competition ratio ([1]; 50 µM) | log2 mean competition ratio ([1]; 200 µM) | log2 mean competition ratio ([2]; 50 µM) | log2 mean competition ratio ([2]; 200 µM)
GPRIN1 C675 (UniProt Q7Z2K8) | -0.132 | 0.225 | 0.0929 | 0.432
GPD2 C385 (UniProt P43304) | -0.136 | 0.007 | -0.531 | -0.0552
GOLGA3 C45 (UniProt Q08378) | 0.196 | 0.0939 | 0.272 | 0.0845
GGPS1 C138 (UniProt O95749) | 0.142 | -0.38 | 0.0632 | -0.367
GGNBP2 C544 (UniProt Q9H3C7) | 0.251 | 0.0382 | 0.482 | 0.177
GNAI1 C351 (UniProt P63096) | -0.0806 | -0.348 | 0.651 | 0.0201
GPT2 C347 (UniProt Q8TD30) | -0.185 | -0.281 | -0.0184 | -0.0509
